SMILES strings stand for the structures. The list does not hold the whole screen: it gathers tests that were run many times, whatever their T/C, doses with no T/C, and many T/C values between a quarter and a half above the control. Further doses and runs are listed elsewhere. T/C: endpoint of the treated group in % of that of the vehicle group. Some entries give survivors of the animals treated and no T/C: the source files T/C as zero there, which appears to mark a toxic dose or a test without result, not a measured value. Some survivor counts are full or nearly so, which does not show that the dose was tolerated: the source hardly ever lists a survival T/C far under the control, and the zero likely stands for such cases as well. Counts of survivors are from the toxicity check (mostly the fifth day) where no day follows; animals may have died later. Schedule codes are those of the source, taken here to give the interval after Q, in days (D) or hours (H), and the number of doses after X. Some doses were run more than once; the values are given in rising order. For survival time, this PubChem deposit counts one and a half times the control or more as active, and values a quarter to a half above the control carry no call in these data; other NCI protocols may use other cut-offs. Some T/C values are followed by the survivors on the day toxicity was checked, most often the fifth; where none is given, no animal had died by that day. Additions like (4×) say how often a value occurs here.

This assay deals with CD2F1 mice, L1210 leukemia ip, survival T/C. As to the kind of experiment: NCI In Vivo Anticancer Drug Screen. Data for tumor model L1210 Leukemia (intraperitoneal) in CD2F1 (CDF1) mice. The following applies: T/C endpoint: mean survival time, higher T/C = longer survival. In short, it runs like this:
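Each value reflects a quotient of treated over vehicle control outcomes in mice with a transplanted tumor.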

Where [1] appears, read: dose: 100.0 mg/kg/injection, schedule: Q04DX003 (ip), vehicle: saline.
Where [2] appears, read: dose: 200.0 mg/kg/injection, schedule: Q01DX009 (ip), vehicle: other.
The mark [3] stands for this setting: dose: 200.0 mg/kg/injection, schedule: Q04DX003 (ip), vehicle: saline with Tween-80.
The mark [4] stands for this setting: dose: 400.0 mg/kg/injection, schedule: Q04DX003 (ip), vehicle: saline.
The mark [5] stands for this setting: dose: 100.0 mg/kg/injection, schedule: Q04DX003 (ip), vehicle: saline with Tween-80.
The mark [6] stands for this setting: dose: 400.0 mg/kg/injection, schedule: Q04DX003 (ip), vehicle: saline with Tween-80.
Setting [7] is: dose: 100.0 mg/kg/injection, schedule: Q04DX002 (ip), vehicle: saline with Tween-80.
Where [8] appears, read: dose: 200.0 mg/kg/injection, schedule: Q04DX002 (ip), vehicle: saline with Tween-80.
Setting [9] is: dose: 200.0 mg/kg/injection, schedule: Q04DX003 (ip), vehicle: saline.
Where [10] appears, read: dose: 200.0 mg/kg/injection, schedule: Q01DX009 (ip), vehicle: saline with Tween-80.

For the molecule `[Co].[N-]=C=S.[N-]=C=S.[N-]=C=S.[N-]=C=S`, the survivor count reads like this: (dose: 200.0 mg/kg/injection, schedule: Q04DX002 (ip), vehicle: saline) 1 of 3; (dose: 400.0 mg/kg/injection, schedule: Q04DX002 (ip), vehicle: saline) 0 of 3.
Turning to `COc1cc2cc3c4cc(OC)c(OC)cc4cc[n+]3c(C)c2cc1OC` (tested in a mixture with another compound), the T/C is 100, 110, 120, 125, 129 % of control (dose: 12.5 mg/kg/injection, schedule: Q01DX009 (ip), vehicle: other); 113, 121, 126, 135 [5 of 6 alive], 137 % of control [5 of 6 alive] (dose: 25.0 mg/kg/injection, schedule: Q01DX009 (ip), vehicle: other); 129 % of control (dose: 25.0 mg/kg/injection, schedule: Q01DX009 (ip), vehicle: saline); 114, 125 [5 of 6 alive], 132, 140, 163 % of control [5 of 6 alive] (dose: 50.0 mg/kg/injection, schedule: Q01DX009 (ip), vehicle: other); 126 % of control (dose: 66.0 mg/kg/injection, schedule: Q04DX003 (ip), vehicle: saline with Tween-80); 86, 120 [5 of 6 alive], 131 (2×), 161 % of control [5 of 6 alive] (dose: 100.0 mg/kg/injection, schedule: Q01DX009 (ip), vehicle: other). For the same molecule, the T/C (dose: 100.0 mg/kg/injection, schedule: Q04DX003 (ip), vehicle: saline with Tween-80, evaluated on day 20) is 131 % of control; the T/C (dose: 100.0 mg/kg/injection, schedule: Q04DX003 (ip), vehicle: saline with Tween-80, evaluated on day 30) was 125 % of control; the T/C under setting [1] is 135 % of control; the T/C (dose: 150.0 mg/kg/injection, schedule: Q04DX003 (ip), vehicle: saline with Tween-80) was 131 % of control; the T/C under setting [2] was 120 % of control; the T/C under setting [3] was 147 % of control. The survivor count reads like this: (dose: 100.0 mg/kg/injection, schedule: Q01DX009 (ip), vehicle: saline) 6 of 6; (dose: 150.0 mg/kg/injection, schedule: Q01DX009 (ip), vehicle: saline) 1 of 6; under setting [2], 1 of 6, 4 of 6, 5 of 6; (dose: 200.0 mg/kg/injection, schedule: Q01DX009 (ip), vehicle: saline) 0 of 6; under setting [4], 1 of 6.
In the case of `CCCCCCCCCCCCOC(=O)C[n+]1cccc(C(=O)NCc2ccccc2)c1`, the survivor count is on record as 0 of 6 under setting [5], 0 of 6 under setting [3] and 0 of 6 under setting [6].
For the molecule `S=c1nc(-c2ccncc2)[nH][nH]1`, the survivor count under setting [3] was 3 of 6 and the survivor count under setting [6] was 3 of 6.
Take `O=C(CCl)Nc1ccc([N+](=O)[O-])cc1`: the survivor count runs as follows: under setting [7], 3 of 3; under setting [8], 3 of 3.
Regarding `C[P+](c1ccc(F)cc1)(c1ccc(F)cc1)c1ccc(F)cc1`, under setting [7], the survivor count is reported as 2 of 3.
With `CCN=c1cc2oc3cc(NCC)c(C)cc3c(-c3ccccc3C(=O)OCC)c-2cc1C`, the survivor count reads like this: (dose: 20.0 mg/kg/injection, schedule: Q04DX003 (ip), vehicle: saline) 3 of 6; (dose: 40.0 mg/kg/injection, schedule: Q04DX003 (ip), vehicle: saline) 0 of 6; under setting [1], 0 of 6; under setting [9], 0 of 6; under setting [4], 0 of 6.
In the case of `Cc1cccc(Cl)c1NC1=NCCO1`, the survivor count was 3 of 6 under setting [5], 0 of 6 under setting [3] and 2 of 6 under setting [6].
On to `C=C(Cl)COC1CCS(=O)(=O)C1` (centres undefined), for which the survivor count by setting is: (dose: 50.0 mg/kg/injection, schedule: Q01DX009 (ip), vehicle: saline with Tween-80) 0 of 3; (dose: 100.0 mg/kg/injection, schedule: Q01DX009 (ip), vehicle: saline with Tween-80) 0 of 3; under setting [10], 0 of 3.
For `O=S(=O)(O)c1ccc(N=Nc2cc(O)cc3ccccc23)cc1`, the survivor count reads like this: (dose: 50.0 mg/kg/injection, schedule: Q01DX001 (ip), vehicle: saline) 3 of 3; (dose: 100.0 mg/kg/injection, schedule: Q01DX001 (ip), vehicle: saline) 3 of 3; (dose: 200.0 mg/kg/injection, schedule: Q01DX001 (ip), vehicle: saline) 3 of 3.
In the case of `COc1ccc2c(c1)c1c(C)c3cnccc3c(C)c1n2CCO`, the T/C under setting [6] is 131 % of control [5 of 6 alive].
In the case of `O=C(NC(=S)Nc1cc(Cl)ccc1O)c1cccc(Br)c1`, the survivor count (dose: 200.0 mg/kg/injection, schedule: Q01DX001 (ip), vehicle: saline with Tween-80) is 3 of 3 and the survivor count (dose: 400.0 mg/kg/injection, schedule: Q01DX001 (ip), vehicle: saline with Tween-80) is 3 of 3.
`COc1cc(C(=O)NNC(=O)c2ccc(Cl)cc2)cc(OC)c1OC`: the survivor count (dose: 400.0 mg/kg/injection, schedule: Q01DX009 (ip), vehicle: saline with Tween-80) is recorded as 6 of 6.
For the molecule `CC(C)(C)OC(=O)NC(CSC(c1ccccc1)(c1ccccc1)c1ccccc1)C(=O)NCC(=O)O` (centres undefined), the survivor count is 3 of 6 (dose: 150.0 mg/kg/injection, schedule: Q01DX001 (ip), vehicle: saline) and 0 of 6 (dose: 300.0 mg/kg/injection, schedule: Q01DX001 (ip), vehicle: saline).
With `C1=CC2C=CC12` (centres undefined), the survivor count reads like this: under setting [10], 6 of 6; under setting [6], 6 of 6.
`CC(C)(C)c1ccc(-n2cnc3c(=O)[nH]c(N)nc32)cc1`: the survivor count under setting [8] is 3 of 3.
For the molecule `O=C1C=CC(=O)N1CO`, the survivor count is 0 of 6 (dose: 14.5 mg/kg/injection, schedule: Q04DX003 (ip), vehicle: saline); 0 of 6 (dose: 22.0 mg/kg/injection, schedule: Q04DX003 (ip), vehicle: saline); 0 of 6 (dose: 33.0 mg/kg/injection, schedule: Q04DX003 (ip), vehicle: saline).
In the case of `CC/C=N/NC(N)=S`, the survivor count is 0 of 6 (dose: 40.0 mg/kg/injection, schedule: Q01DX001 (ip), vehicle: saline) and 0 of 6 (dose: 80.0 mg/kg/injection, schedule: Q01DX001 (ip), vehicle: saline).
In the case of `CC[N+](CC)(CC)CCCNC1=CC(=O)C(NCCC[N+](CC)(CC)CC)=CC1=O`, the survivor count under setting [1] is given as 0 of 3, the survivor count under setting [9] is given as 0 of 3 and the survivor count under setting [4] was 0 of 3.
On to `O=C(NO)Nc1ccc(Cl)cc1`, for which the survivor count by setting is: (dose: 140.0 mg/kg/injection, schedule: Q03HX024 (ip), vehicle: saline with Tween-80) 7 of 8; (dose: 210.0 mg/kg/injection, schedule: Q03HX024 (ip), vehicle: saline with Tween-80) 5 of 8.
On to `CCOC(=O)C1=C(C)/C(=C/c2[n-]c(C)c(C(=O)OCC)c2C)N=C1C.CCOC(=O)C1=C(C)/C(=C/c2[n-]c(C)c(C(=O)OCC)c2C)N=C1C.[Co+2]`, for which the survivor count (dose: 100.0 mg/kg/injection, schedule: Q01DX001 (ip), vehicle: saline with Tween-80) was 6 of 6.
Turning to `O=P(OCc1ccccc1)(N(CCCl)CCCl)N1CCOCC1` (centres undefined), the survivor count (dose: 500.0 mg/kg/injection, schedule: Q01DX010 (ip), vehicle: saline) was 0 of 6.
As to `CCCCCCCCCCCC[N+]1(C)CCC[N+](C)(CCCCCCCCCCCC)CC1` (centres undefined), the survivor count runs as follows: (dose: 150.0 mg/kg/injection, schedule: Q01DX001 (ip), vehicle: saline with Tween-80) 0 of 6; (dose: 300.0 mg/kg/injection, schedule: Q01DX001 (ip), vehicle: saline with Tween-80) 0 of 6.

The record behind these values is PubChem BioAssay AID256 (DTP/NCI, 2004).
